# Values quoted from earlier work, collected in patent US10481149B2.
# At least one compound was matched to its structure with a doubt left.
# System: elimination transporters
# Conditions: sandwich-cultured rat hepatocytes; cited from earlier work
smiles,measurement,value
"Cc1c(C)c2c(c(C)c1O)CCC(C)(COc1ccc(CC3SC(=O)NC3=O)cc1)O2 (stereo not shown) [Troglitazone, troglitazone]",interference with rosuvastatin elimination,20.6%
